Measured values taken from publication PMC3916906.
No constants are given. Whether binding was seen depends on the method and setting. For some of these results: In cells and extracts the contact can be indirect. Some results given as binding are weak or reduced against the parent protein; the word gives no strength.

Experiments:
Details in all cases: remark: other sources report otherwise
[1] = molecular target: T1, Argonaute-2 (Ago2), endogenous (human (endogenous in HeLa and T47D)), Q9UKV8; experiment: anion-exchange chromatography; high molecular weight size-exclusion fractions of HeLa nuclear extract concentrated and run on Mono-Q, linear gradient 0.1 to 1 M NaCl; fractions by Western blot
[2] = molecular target: T1, Argonaute-2 (Ago2), endogenous (human …); experiment: SEC; HeLa nuclear extract, treated with RNase A or SUPERase-In, on Superdex 200 HiLoad 16/60 in 20 mM Tris-HCl pH 7.5, 150 mM NaCl, 3 mM MgCl2, 5% glycerol; fractions by Western blot
[3] = molecular target: FLAG-HA-tagged Ago2 (FHA-Ago2) (human), Q9UKV8; experiment: co-IP; anti-FLAG immunoprecipitation of FHA-Ago2 from nuclear extract of T47D cells stably expressing it; HeLa nuclear extract as negative control; Western blot
[4] = molecular target: T1, Argonaute-2 (Ago2), endogenous (human …); experiment: co-IP; endogenous proteins from pre-cleared HeLa nuclear extract; Protein G Plus/Protein A resin and antibody, 4°C, 2-3 h; wash 20 mM Tris-HCl pH 7.5, 0.4 M NaCl, 2 mM MgCl2, 0.05% NP-40, 0.025% SDS; Western blot

Measured: binding

B1: TAR RNA-binding protein (TRBP), endogenous, Q15633 1-366 (protein)
chain: MSEEEQGSGTTTGCGLPSIEQMLAANPGKTPISLLQEYGTRIGKTPVYDLLKAEGQAHQPNFTFRVTVGDTSCTGQGPSKKAAKHKAAEVALKHLKGGSMLEPALEDSSSFSPLDSSLPEDIPVFTAAAAATPVPSVVLTRSPPMELQPPVSPQQSECNPVGALQELVVQKGWRLPEYTVTQESGPAHRKEFTMTCRVERFIEIGSGTSKKLAKRNAAAKMLLRVHTVPLDARDGNEVEPDDDHFSIGVGSRLDGLRNRGPGCTWDSLRNSVGEKILSLRSCSLGSLGALGPACCRVLSELSEEQAFHVSYLDIEELSLSGLCQCLVELSTQPATVCHGSATTREAARGEAARRALQYLKIMAGSK
binds: [1] | [2] | [3] | [4]
